Test results as given in the supplement of paper PMC10849652.
The other results are listed elsewhere or left out.

Amino acid sequences for entries named in this document (tags omitted). A change or cut given only in a name is not applied to a line headed by its entry.
UniProt Q9Y4P8: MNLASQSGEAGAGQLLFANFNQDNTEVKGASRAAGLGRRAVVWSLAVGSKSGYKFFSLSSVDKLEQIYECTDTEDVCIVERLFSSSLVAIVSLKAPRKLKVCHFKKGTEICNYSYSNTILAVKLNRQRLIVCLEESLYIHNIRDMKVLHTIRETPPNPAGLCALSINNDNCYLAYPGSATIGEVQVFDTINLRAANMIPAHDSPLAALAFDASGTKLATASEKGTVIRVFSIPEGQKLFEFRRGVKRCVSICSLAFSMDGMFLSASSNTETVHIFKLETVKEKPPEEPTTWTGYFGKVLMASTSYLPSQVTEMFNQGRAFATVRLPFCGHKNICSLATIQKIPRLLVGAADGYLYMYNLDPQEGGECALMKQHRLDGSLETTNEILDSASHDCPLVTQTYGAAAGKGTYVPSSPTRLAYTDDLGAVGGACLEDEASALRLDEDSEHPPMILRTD
UniProt Q96RL7: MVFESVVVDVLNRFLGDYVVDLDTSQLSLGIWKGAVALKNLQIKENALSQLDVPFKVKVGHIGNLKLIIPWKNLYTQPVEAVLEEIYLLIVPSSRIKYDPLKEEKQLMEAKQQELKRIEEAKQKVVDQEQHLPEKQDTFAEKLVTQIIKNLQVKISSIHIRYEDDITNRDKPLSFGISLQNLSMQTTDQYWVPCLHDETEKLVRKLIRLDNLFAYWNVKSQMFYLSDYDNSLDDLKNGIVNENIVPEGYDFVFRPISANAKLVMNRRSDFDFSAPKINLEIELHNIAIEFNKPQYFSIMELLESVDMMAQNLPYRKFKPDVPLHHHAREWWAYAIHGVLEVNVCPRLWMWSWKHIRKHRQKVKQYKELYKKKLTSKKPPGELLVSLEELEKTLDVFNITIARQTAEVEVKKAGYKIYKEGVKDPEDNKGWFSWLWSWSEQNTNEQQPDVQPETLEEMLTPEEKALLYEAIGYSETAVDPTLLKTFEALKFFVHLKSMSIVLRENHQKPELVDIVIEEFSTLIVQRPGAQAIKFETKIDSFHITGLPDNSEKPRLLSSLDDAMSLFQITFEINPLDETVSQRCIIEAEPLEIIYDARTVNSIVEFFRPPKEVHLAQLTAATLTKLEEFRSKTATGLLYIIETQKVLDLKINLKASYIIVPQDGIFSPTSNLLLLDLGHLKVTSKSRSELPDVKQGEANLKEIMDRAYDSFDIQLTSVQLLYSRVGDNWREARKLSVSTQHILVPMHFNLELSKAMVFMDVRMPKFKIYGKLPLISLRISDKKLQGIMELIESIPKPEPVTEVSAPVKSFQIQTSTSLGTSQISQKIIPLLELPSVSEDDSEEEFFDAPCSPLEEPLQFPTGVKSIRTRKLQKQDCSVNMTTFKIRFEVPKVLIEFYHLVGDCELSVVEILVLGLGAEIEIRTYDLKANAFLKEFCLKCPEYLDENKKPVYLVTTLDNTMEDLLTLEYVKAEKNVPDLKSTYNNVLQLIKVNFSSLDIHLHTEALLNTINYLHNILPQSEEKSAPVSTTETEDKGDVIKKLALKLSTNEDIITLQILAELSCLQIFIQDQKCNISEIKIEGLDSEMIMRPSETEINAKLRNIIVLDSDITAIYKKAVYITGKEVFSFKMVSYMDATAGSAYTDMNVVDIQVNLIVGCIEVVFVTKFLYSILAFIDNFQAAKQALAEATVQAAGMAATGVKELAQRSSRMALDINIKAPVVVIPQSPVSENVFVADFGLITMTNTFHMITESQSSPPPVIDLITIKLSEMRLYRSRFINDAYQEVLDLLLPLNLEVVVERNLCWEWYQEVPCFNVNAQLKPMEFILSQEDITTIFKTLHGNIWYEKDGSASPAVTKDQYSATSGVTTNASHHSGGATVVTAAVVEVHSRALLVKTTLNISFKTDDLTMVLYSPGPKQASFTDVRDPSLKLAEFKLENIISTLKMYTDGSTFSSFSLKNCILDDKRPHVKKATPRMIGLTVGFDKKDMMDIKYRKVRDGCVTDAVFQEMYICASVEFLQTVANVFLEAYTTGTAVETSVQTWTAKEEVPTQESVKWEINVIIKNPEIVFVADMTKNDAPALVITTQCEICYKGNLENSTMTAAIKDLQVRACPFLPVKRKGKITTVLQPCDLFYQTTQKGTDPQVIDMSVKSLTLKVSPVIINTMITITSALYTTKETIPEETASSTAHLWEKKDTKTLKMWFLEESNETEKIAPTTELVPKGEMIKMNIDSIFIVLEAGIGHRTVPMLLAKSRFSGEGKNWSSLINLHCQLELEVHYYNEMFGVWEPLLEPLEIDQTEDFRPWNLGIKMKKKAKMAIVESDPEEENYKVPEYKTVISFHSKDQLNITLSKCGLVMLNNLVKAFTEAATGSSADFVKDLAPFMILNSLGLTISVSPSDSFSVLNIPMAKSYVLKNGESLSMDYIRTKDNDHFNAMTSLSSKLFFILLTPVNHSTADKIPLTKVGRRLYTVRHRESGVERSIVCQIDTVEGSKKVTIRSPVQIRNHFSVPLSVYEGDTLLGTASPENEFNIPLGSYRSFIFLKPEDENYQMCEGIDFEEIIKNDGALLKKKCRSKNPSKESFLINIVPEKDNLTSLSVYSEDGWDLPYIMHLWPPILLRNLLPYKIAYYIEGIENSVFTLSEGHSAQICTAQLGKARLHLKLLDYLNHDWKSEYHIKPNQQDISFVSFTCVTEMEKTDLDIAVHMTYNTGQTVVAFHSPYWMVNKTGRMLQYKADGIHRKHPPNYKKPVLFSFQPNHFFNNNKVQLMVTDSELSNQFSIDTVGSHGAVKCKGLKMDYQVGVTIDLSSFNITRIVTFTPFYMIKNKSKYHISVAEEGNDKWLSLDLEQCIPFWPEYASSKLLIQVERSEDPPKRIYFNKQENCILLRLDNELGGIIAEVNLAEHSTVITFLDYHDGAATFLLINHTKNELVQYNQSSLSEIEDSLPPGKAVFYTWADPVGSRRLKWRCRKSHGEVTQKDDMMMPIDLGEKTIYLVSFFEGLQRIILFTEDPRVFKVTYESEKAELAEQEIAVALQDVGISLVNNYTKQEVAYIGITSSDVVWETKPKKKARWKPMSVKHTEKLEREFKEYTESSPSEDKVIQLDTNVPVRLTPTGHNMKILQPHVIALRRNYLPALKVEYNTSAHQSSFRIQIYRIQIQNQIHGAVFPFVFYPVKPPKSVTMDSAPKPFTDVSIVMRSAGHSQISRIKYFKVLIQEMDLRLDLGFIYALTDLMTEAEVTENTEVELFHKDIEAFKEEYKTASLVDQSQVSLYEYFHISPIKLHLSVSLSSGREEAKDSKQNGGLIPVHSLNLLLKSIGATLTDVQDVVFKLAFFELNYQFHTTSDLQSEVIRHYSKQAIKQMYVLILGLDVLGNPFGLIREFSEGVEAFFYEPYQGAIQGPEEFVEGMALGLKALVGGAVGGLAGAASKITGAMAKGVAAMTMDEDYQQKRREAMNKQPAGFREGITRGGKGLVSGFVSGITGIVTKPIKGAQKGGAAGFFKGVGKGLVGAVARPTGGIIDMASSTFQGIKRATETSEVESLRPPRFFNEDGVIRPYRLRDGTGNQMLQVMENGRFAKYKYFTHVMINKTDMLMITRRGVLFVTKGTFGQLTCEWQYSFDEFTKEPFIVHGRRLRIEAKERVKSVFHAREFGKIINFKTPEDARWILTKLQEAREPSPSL
UniProt Q96MX6, whole entry, looked up: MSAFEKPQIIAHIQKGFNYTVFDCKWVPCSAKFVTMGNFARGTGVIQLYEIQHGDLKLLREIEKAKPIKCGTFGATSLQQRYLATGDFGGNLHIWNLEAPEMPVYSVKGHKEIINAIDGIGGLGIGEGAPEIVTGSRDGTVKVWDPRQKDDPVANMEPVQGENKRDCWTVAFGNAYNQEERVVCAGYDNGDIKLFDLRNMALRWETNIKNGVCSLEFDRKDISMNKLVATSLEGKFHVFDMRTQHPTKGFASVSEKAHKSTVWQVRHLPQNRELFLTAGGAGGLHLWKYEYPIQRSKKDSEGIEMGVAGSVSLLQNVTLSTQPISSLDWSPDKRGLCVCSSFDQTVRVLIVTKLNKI
UniProt A5D8V6: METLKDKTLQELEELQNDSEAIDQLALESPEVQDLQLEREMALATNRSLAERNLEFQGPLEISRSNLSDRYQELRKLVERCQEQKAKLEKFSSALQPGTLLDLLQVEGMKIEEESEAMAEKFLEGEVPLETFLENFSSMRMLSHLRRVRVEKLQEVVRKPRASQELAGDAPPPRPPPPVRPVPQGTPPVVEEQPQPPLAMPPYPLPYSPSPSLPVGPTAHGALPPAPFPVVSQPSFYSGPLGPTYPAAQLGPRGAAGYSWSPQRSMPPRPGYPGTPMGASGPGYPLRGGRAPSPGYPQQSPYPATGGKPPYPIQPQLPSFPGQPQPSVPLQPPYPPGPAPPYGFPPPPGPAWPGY
UniProt P45880: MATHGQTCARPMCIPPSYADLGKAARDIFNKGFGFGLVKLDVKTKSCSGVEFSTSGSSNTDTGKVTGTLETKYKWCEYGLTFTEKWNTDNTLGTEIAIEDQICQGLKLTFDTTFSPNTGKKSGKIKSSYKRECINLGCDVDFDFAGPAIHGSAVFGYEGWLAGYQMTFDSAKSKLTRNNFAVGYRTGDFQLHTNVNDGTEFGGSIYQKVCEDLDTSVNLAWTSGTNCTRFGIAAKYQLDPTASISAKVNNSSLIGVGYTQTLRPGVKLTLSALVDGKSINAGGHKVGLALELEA
UniProt Q9BQA1, whole entry, looked up: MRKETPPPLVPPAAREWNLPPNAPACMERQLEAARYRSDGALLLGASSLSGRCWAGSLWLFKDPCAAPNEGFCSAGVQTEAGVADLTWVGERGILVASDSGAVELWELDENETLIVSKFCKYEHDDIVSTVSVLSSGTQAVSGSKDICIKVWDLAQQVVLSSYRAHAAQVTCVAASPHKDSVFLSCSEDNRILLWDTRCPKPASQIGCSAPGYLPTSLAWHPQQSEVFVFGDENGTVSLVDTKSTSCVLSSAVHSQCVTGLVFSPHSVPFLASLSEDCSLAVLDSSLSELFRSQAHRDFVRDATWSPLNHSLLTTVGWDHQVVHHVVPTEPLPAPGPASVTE
UniProt Q969T9: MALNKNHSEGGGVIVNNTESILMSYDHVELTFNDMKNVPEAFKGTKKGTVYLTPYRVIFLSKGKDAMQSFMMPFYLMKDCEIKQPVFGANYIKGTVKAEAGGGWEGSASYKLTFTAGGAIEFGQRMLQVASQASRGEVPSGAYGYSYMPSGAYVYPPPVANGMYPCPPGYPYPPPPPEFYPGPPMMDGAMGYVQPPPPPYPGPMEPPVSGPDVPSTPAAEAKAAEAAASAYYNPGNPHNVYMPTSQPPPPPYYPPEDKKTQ
UniProt Q9C0J8: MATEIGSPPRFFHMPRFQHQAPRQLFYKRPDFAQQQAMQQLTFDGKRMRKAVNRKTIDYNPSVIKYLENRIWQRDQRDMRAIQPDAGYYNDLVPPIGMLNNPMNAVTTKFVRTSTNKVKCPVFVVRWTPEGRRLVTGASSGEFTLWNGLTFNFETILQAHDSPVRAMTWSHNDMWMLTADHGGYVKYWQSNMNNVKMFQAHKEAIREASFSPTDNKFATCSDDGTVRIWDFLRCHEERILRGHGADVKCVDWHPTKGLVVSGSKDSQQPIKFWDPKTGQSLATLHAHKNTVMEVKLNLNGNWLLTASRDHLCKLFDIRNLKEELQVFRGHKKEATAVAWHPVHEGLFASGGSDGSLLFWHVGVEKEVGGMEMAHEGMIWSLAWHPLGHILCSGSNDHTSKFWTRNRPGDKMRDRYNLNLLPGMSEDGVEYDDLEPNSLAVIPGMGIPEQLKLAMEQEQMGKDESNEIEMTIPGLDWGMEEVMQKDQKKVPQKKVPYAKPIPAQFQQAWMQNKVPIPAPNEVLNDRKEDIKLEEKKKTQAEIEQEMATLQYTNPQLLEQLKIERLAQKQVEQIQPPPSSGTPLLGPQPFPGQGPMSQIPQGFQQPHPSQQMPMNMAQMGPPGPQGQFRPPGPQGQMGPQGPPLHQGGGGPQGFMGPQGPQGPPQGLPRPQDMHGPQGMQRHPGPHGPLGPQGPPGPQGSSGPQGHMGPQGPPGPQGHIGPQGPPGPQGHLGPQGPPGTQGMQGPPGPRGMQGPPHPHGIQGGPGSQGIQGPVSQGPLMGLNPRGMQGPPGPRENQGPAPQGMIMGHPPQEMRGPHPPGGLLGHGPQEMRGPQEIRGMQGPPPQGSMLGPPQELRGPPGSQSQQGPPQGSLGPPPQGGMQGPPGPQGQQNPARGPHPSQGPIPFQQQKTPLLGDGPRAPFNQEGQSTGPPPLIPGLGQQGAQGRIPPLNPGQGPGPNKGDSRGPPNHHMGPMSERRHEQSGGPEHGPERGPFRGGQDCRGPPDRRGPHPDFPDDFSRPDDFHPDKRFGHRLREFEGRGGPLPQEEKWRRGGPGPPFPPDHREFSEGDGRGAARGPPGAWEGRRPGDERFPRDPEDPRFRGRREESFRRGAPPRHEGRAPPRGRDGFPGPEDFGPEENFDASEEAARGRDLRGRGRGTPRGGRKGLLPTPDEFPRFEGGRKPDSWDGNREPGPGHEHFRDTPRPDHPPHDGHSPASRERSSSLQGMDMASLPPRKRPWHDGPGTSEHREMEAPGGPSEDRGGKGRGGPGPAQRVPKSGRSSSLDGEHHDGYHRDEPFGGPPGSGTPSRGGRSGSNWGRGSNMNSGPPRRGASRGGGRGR

Compound: c1cn2cc(-c3ccc4cn[nH]c4c3)nc(Nc3ccc(N4CCOCC4)cc3)c2n1 [entospletinib]
Test: log2 fold change, soluble protein after heating vs DMSO (PISA); higher = thermal stabilisation; K562 cells, 10 uM, 30 min; active = over 0.2 and 3.5 SD of the protein, either way, in both replicates (recomputed)
How it was run: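 K562 cells at 2×10^6 cells/mL were treated with 10 μM compound for 30 min. Aliquots were heated for 3 min across 48°C-58°C, pooled, and extracted in PBS with 0.5% NP-40 at 4°C; soluble protein was the supernatant after 21,000xg for 90 min. Soluble protein was quantified by TMTpro 16plex LC-MS/MS with channel sums equalised, and reported as log2 fold change in thermal stability against DMSO controls, with values from duplicates.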

log2 fold change, inactive:
WIPI2 isoform 6 (UniProt Q9Y4P8) -0.07
VPS26A (UniProt O75436) -0.061
VPS13A (UniProt Q96RL7) -0.026
WDR92 (UniProt Q96MX6) 0.015
WRNIP1 (UniProt Q96S55) -0.148
WIPF2 (UniProt Q8TF74) 0.007
VEGFA (UniProt H0YBI8) -0.074
VKORC1L1, A0A3B3ISV4 0.121
WIZ (UniProt O95785) -0.006
VPS37C (UniProt A5D8V6) 0.005
WDR6 (UniProt Q9NNW5) 0.034
VDAC2 (UniProt P45880) -0.003
WDR1 (UniProt O75083) -0.009
VPS25 (UniProt Q9BRG1) -0.026
WDR36 (UniProt Q8NI36) -0.012
WDR77 (UniProt Q9BQA1) -0.005
WDR26, A0A499FIZ0 0.023
WBP2 (UniProt Q969T9) 0.007
WDR73 (UniProt Q6P4I2) -0.025
VEZF1 (UniProt Q14119) -0.009
WDR33 (UniProt Q9C0J8) 0.057
VDAC2 (UniProt Q5JSD2) -0.113
WARS (UniProt P23381) 0.031
VWDE (UniProt Q8N2E2) -0.003
WDR91 (UniProt A4D1P6) 0.053
WRAP73 (UniProt Q9P2S5) 0.004
WDR55 (UniProt Q9H6Y2) -0.012
VPS29 isoform 2 (UniProt Q9UBQ0) 0.006

Quoted at random: two records from the list
log2 fold change, inactive:
WDR55 (UniProt Q9H6Y2) -0.012
WDR26, A0A499FIZ0 0.023
